1 substance from doi:10.1101/2022.07.21.500829 can be followed below.

Amino acid sequences for entries named in this document (tags omitted). Residues count along the entry.
UniProt P41439, residues 23-245: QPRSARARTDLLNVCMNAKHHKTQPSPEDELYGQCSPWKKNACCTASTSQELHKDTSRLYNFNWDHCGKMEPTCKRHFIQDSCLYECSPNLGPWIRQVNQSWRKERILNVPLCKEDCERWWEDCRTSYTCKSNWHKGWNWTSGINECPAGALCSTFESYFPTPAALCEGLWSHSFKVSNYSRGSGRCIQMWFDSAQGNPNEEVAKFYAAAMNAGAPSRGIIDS
UniProt Q92743, residues 23-480: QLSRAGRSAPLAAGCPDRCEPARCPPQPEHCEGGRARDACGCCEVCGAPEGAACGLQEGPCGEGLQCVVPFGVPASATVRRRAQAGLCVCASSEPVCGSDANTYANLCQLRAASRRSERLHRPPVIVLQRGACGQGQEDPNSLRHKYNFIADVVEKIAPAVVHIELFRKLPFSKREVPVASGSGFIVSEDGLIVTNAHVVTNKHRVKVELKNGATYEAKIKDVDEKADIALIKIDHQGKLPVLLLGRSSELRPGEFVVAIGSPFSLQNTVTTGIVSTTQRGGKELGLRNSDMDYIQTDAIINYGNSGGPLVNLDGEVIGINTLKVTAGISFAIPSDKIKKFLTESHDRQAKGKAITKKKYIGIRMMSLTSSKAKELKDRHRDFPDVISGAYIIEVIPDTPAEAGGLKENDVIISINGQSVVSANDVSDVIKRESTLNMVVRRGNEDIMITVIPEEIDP

These are yes or no findings as the source states them, for the method shown. In cells and extracts the contact can be indirect. Some results given as binding are weak or reduced against the parent protein; the word gives no strength.

This experiment addresses folate receptor gamma (FOLR3) with FLAG tag (human) (UniProt P41439). As to the kind of experiment: pull-down.

Consider “serine protease HTRA1 (from UniProt Q92743 23-480) (enzyme)”, for which the binding result is recorded as “binds”.
